For at least one compound, name, drawing or mass did not settle the structure.
Tested on: human ovarian tumour cell lines
Assay: Activity in vitro towards ovarian cell lines
Format: cell-based
Details: Table 4 (image)

## OCOCN(CC(F)(F)F)c1nc(N(CO)CC(F)(F)F)nc(N(CO)CC(F)(F)F)n1 [Compound 6, 2-[([hydroxymethoxy]methyl)(2,2,2-trifluoroethyl)amino]-4,6-bis(hydroxymethyl)(2,2,2-trifluoroethyl)-amino-1,3,5-triazine]
  potency in a variety of ovarian cell lines compared with (1): virtually equipotent with (1)

Source: EP0505220A1, “New compounds for use in the treatment of cancer” (JARMAN, Michael, priority 1991, dated 1992)
